# Laboratory results reported in PMC3792970, “A Single Nucleotide Polymorphism Associated with Hepatitis C Virus Infections Located in the Distal Region of the IL28B Promoter Influences NF-κB-Mediated Gene Transcription”.
# By UniProt entry, the sequences of proteins in these tests, tags left out.
# UniProt Q04206, whole entry: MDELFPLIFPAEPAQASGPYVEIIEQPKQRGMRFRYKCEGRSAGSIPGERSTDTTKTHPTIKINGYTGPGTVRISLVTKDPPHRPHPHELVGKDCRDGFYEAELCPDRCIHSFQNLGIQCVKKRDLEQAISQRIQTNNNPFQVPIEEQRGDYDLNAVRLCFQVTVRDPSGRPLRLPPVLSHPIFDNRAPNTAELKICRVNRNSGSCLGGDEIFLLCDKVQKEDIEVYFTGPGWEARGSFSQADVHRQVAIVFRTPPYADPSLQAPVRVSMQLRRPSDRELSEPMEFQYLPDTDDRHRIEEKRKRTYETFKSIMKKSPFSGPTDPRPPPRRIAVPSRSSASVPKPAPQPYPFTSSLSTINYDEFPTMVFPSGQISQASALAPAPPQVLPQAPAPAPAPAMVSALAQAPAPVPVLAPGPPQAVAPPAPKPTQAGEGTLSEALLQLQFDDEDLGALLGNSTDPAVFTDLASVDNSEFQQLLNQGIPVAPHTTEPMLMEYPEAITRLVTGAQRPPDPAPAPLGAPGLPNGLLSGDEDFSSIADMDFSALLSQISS
# Tests used:
# [1] = test system: NF-kB p50 (overexpressed) + NF-kB p65 (overexpressed); experiment: EMSA; settings: HeLa nuclear extract 2-6 ul, likely NF-kB dimer band, no supershift, EMSA: 1X BB stated as 50 mM Tris pH 8.0, 250 mM KCl, 2.5 mM EDTA, 0.5% Triton X-100, 62.5% glycerol, 1 mM DTT, 1 ug poly(dI:dC), 10 ul, room temperature 30 min, protein in an extract
# NF-kB p65 = NF-kB p65 (UniProt Q04206); experiment: pull-down, western blot; settings: HEK293T nuclear extract, poly(dI:dC), pull-down: 1X BB, RT 2 h, protein in an extract
Sequence,binding result ([1]; slightly less than C-C),binding result (NF-kB p65),binding result ([1]; slightly more than G-T (fold only in figure))
CCCCTGCCCTCAGTGGGCAGCCTCTGCATTCCCTCAGCTCCCTTTCTCTCTGTGA (double strand) [G-T (NF813G-T)],binds,binds,–
CCCCTGCCCTCAGTGGGCAGCCTCTCCATCCCCTCAGCTCCCTTTCTCTCTGTGA (double strand) [C-C (NFC-C849)],–,binds,binds

# The exact form of at least one protein or probe is not confirmed. Results from cells or extracts need not show a direct contact. For some of these results: At least one verdict rests on a figure or table, not on a statement of the authors.
